Data on 28 compounds can be found in the supplement of paper PMC6821926, “Diaminoquinazoline MMV675968 from Pathogen Box inhibits Acinetobacter baumannii growth through targeting of dihydrofolate reductase” (Scientific Reports, 2019).

Molecules are shown by their SMILES. ± gives the uncertainty stated by the source. Some of the results follow.

Assay [1] relates to Acinetobacter baumannii Mahidol. Nature of the assay: percent growth relative to DMSO-treated control; higher = less growth inhibition. The note with it: 10 µM; 18 h.
In assay [2] the test system is Acinetobacter baumannii Naval-81. The assay is described as above. The note with it: 10 µM; 18 h.

Take `CC(C)(C)OC(=O)N1CCN(c2cc(-c3ccc(Oc4ccccc4)cc3)n[nH]2)CC1`: the percent growth in assay [1] worked out at 84.8 ± 5.5%; in assay [2], 109 ± 11%.

With `CC(=O)Oc1ccccc1C(=O)Nc1ncc([N+](=O)[O-])s1`, the figures for the percent growth in assay [1] and in assay [2] were 70.9 ± 22% and 87.3 ± 8.8%, respectively.

As for `O=C(C1CCN(c2nnc(-n3cccc3)s2)CC1)N1CCC(Cc2ccccc2)CC1`, the percent growth in assay [1] was determined as 88.7 ± 6%; in assay [2] it was 92.2 ± 11%.

On to `Cc1nn(C)cc1C(C)Nc1nncc(-c2ccc(C(F)(F)F)cc2)n1` (stereo unspecified), for which the figures for the percent growth in assay [1] and in assay [2] were 97.9 ± 10% and 96.5 ± 20%, respectively.

For the compound `Cc1ccc2cc(C3NC(=O)c4ccccc4N3)c(Cl)nc2c1` (stereo unspecified), the percent growth in assay [1] is 100 ± 37%; in assay [2] it was 99.4 ± 37%.

For `CC(C)n1ncc2c(C(=O)NCC(c3cccs3)N3CCOCC3)cc(-c3ccccc3)nc21` (stereo unspecified), the percent growth in assay [1] came to 107 ± 19%; in assay [2], 92.7 ± 5.7%.

As to `CN1CCN(S(=O)(=O)c2ccc(-c3ccc4c(Nc5ncc(Cl)cn5)ccnc4c3)cc2)CC1`, the percent growth in assay [1] is 80.1 ± 19%; in assay [2] it was 96.1 ± 9.1%.

As for `O=C(Nc1ccc(C(F)(F)F)c(C(F)(F)F)c1)c1cc(Cl)ccc1O`, the percent growth in assay [1] was found to be 47.2 ± 36%; in assay [2], 87.3 ± 19%.

In the case of `CCC(C)NC(=O)c1ccc(NC(=O)C2(c3ccccc3)CCCC2)cc1` (stereo unspecified), the results for the percent growth in assay [1] and in assay [2] were 96.4 ± 6.5% and 88 ± 14%, respectively.

Take `N#Cc1nc(-c2ccccc2F)oc1NCCc1ccccc1`: the percent growth came to 96.8 ± 4.4% in assay [1] and 78.3 ± 12% in assay [2].

For `Cc1cc(C)nc(-n2nc(C)cc2Nc2ccccc2)n1`, the percent growth in assay [1] is 97.2 ± 6.8%; in assay [2], 102 ± 18%.

In the case of `O=C(Cn1ccnc1[N+](=O)[O-])NCc1ccccc1`, the results for the percent growth in assay [1] and in assay [2] were 87.8 ± 38% and 115 ± 42%, respectively.

`Cc1cc(Nc2ccc(C(F)(F)F)cc2)n2ccnc2n1`: the percent growth came to 52.7 ± 13% in assay [1] and 53.3 ± 1.8% in assay [2].

`C[C@]1(O)C[C@@H](c2nc(-c3ccc4ccc(-c5ccccc5)nc4c3)c3c(N)nccn32)C1`: the percent growth in assay [1] worked out at 83.6 ± 46%; in assay [2], 84.9 ± 15%.

Regarding `CNC(=O)CNc1nc(-c2ccccn2)nc2scc(-c3ccccc3)c12`, the figures for the percent growth in assay [1] and in assay [2] were 90.2 ± 18% and 104 ± 6.9%, respectively.

As for `CCCCCCCCCCCCCCCCOP(=O)([O-])OCC[N+](C)(C)C`, the percent growth in assay [1] was determined as 88.1 ± 5.7%; in assay [2], 91.5 ± 8.7%.

On to `CC(C)(C)C(=O)N(CCCCCCN1C[C@H](O)[C@@H](O)[C@H](O)[C@H]1CO)C1CCCCCC1`, for which the percent growth came out at 103 ± 4.9% in assay [1] and 84.4 ± 31% in assay [2].

With `COc1cc(NC(C)CCCN)c2ncccc2c1` (stereo unspecified), the percent growth was determined as 120 ± 22% in assay [1] and 74.7 ± 18% in assay [2].

With `Nc1ncnc2c1ncn2C[C@@H](O)[C@@H](O)C(=O)O`, the values for the percent growth in assay [1] and in assay [2] were 76.7 ± 38% and 90.2 ± 19%, respectively.

Consider `Cc1[nH]c2cc(F)cc(F)c2c(=O)c1-c1ccc(Oc2ccc(OC(F)(F)F)cc2)cc1`, for which the percent growth in assay [1] was 92.6 ± 5.3%; in assay [2] it was 96.1 ± 26%.

On to `CN(C(=O)c1cc2c(-c3cncnc3)cccc2[nH]1)c1ccccc1`, for which the percent growth in assay [1] is 88.4 ± 11%; in assay [2], 90 ± 26%.

Consider `CC(C)(C)CN1C(=O)C(c2ccccc2)(c2ccccc2)N=C1N`, for which the results for the percent growth in assay [1] and in assay [2] were 87.3 ± 2.2% and 92.3 ± 14%, respectively.

Consider `Nc1nccc2ccc(-c3ccc4nccn4c3)cc12`, for which the percent growth in assay [1] came to 83.5 ± 4.7%; in assay [2] it was 97.3 ± 12%.

With `COc1ccc(-c2cnc3ccc(NCc4ccc(S(N)(=O)=O)cc4)nn23)cn1`, the percent growth was determined as 92.2 ± 5.4% in assay [1] and 84.3 ± 18% in assay [2].

Take `COc1ccc(N(CCc2cccc(C)n2)C(C)=O)cc1`: the percent growth in assay [1] stood at 92.5 ± 8.5%; in assay [2], 98 ± 5.8%.

As for `c1ccc(C[C@@H]2CN(c3nccc(Oc4ccc(-n5ccnc5)cc4)n3)CCN2)cc1`, the figures for the percent growth in assay [1] and in assay [2] were 88.2 ± 3.6% and 85.6 ± 13%, respectively.

Turning to `CCOc1ccc(-c2nc(CNCCc3ccc(F)cc3)cs2)cc1`, the values for the percent growth in assay [1] and in assay [2] were 93.2 ± 13% and 75.3 ± 10%, respectively.

For `Cc1nc(-c2ccccn2)nc(NCCc2ccc(S(C)(=O)=O)cc2)c1Cl`, the percent growth in assay [1] is 94.9 ± 7.6%; in assay [2], 80 ± 21%.
